The exact form of at least one protein or probe is not confirmed. At least one verdict was read from the data and is not stated in words by the source. Protein sequences can lack the tags named with them.

This data set addresses T1, CYT-18 CTD (Neurospora crassa) (UniProt P12063).
T1 sequence (looked up): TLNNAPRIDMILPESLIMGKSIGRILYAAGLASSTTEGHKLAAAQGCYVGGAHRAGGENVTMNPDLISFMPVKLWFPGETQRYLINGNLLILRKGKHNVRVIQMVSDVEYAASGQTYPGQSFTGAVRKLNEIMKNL
In words: filter binding. Particulars: range over five RNAs, sigmoidal, 100 mM KCl, 5 mM MgCl2, 20 mM Tris-HCl pH 7.5, 5 mM DTT, 0.1 mg/ml BSA, 10% glycerol, 5 pM RNA, 30 min, 25C or 37C, nitrocellulose/nylon filter, recombinant protein, residues 448-583, label: 5'-32P.

Regarding “UUUUUUUUUUUUUUUUUUUUUUUUUUUUUU [poly(U)30]”, the binding result (25C) is recorded as “binds” and the binding result (37C) is “binds”.

These data come from article PMC4275181.
